Data: the supplement of paper PMC8104966
The other results are listed elsewhere or left out. Repeats in this data set agree poorly, so a single value says little.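 Fusion between ACE2-bearing and full-length-spike-bearing U2OS cells was measured by imaging as the percentage of nuclei with both cell types' fluorescent markers. An inhibitory hit is a non-toxic compound whose fusion z-score is below -3, more than three standard deviations beneath the plate's DMSO wells.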

System: U2OS ACE2 x SARS-CoV-2 spike co-culture
Experiment: cell-cell fusion (fraction fused) z-score vs plate DMSO control; higher = more fusion
Conditions: 30 µM; 5 h; toxicity class: non-toxic, passed QC

Compound | cell-cell fusion (z-score)
C[C@]12CC[C@H]3c4ccc(O)cc4CC[C@H]3[C@@H]1CCC2=O [Estrone] | inactive: 1.53
CC(C)n1nccc1-c1ncccc1COc1cccc(O)c1C=O [voxelotor] | active: -3.02
O=C(O)c1cc([N+](=O)[O-])ccc1NCCCc1ccccc1 [5-Nitro-2-(3-phenylpropylamino)benzoic acid] | inactive: 3.37
C[C@@H]1CCC2[C@](C)(CO)[C@@H](O)CC[C@]2(C)[C@@]12CC[C@@](CO)(CCO)O2 (stereo partly drawn) | inactive: 1.37
NCC(=O)[O-].NCC(=O)[O-].[Fe+2] [Ferrous Bisglycinate] | inactive: 3.48
COP(=O)(OC)OC=C(Cl)Cl | inactive: 2.75
CC/C(=C(/CC)c1ccc(O)cc1)c1ccc(O)cc1 | inactive: 0.852
O=C(O)c1cc(O)c(=O)c2c(O)c(O)c(O)cc2c1 | inactive: 2.38
NCC1(CC(=O)O)CCCCC1 [Gabapentin] | inactive: 2.86
NCC1(CC(=O)O)CCCCC1 | inactive: 3.55
COc1ccc2c3c1O[C@H]1C[C@@H](O)C=C[C@@]31CCN(C)C2 | inactive: 3.31
O=C(O)c1ccccc1Nc1cccc(C(F)(F)F)c1 | inactive: 1.01
CC(C)[C@@]12O[C@@H]1[C@@H]1O[C@]13[C@]1(O[C@@H]1C[C@@H]1C4=C(CC[C@@]13C)C(=O)OC4)[C@@H]2O [Triptolide] | inactive: 2.4
CC(C(=O)O)c1ccc(CC2CCCC2=O)cc1 (stereo not drawn) [loxoprofen] | inactive: 2.42
CN(C)C(=O)Oc1cccc([N+](C)(C)C)c1.[Br-] [Neostigmine bromide] | inactive: 1.41
COc1c(C)cnc(Cn2cnc3c(Cl)nc(N)nc32)c1C | inactive: 1.39
CN1CCN2c3ccccc3Cc3ccccc3C2C1.Cl (stereo not drawn) [Mianserin hydrochloride] | inactive: 2.21
CN1CCN2c3ccccc3Cc3ccccc3C2C1.Cl (stereo not drawn) | inactive: 3.64
O=C(O)C(O)C(O)C(O)C(O)C(=O)O (stereo not drawn) | inactive: 1.24
CCNC(=O)CC[C@H](N)C(=O)[O-].[K+] | inactive: 2.89
O=C(/C=C/c1ccccc1)c1ccc(O)cc1 | inactive: 0.849
CC(=O)OCC(=O)[C@@]1(O)CC[C@H]2[C@@H]3CCC4=CC(=O)CC[C@]4(C)[C@H]3C(=O)C[C@@]21C [Cortisone 21-acetate] | inactive: 2.19
CC(=O)OCC(=O)[C@@]1(O)CC[C@H]2[C@@H]3CCC4=CC(=O)CC[C@]4(C)[C@H]3C(=O)C[C@@]21C [Cortisone acetate] | inactive: 1.2
Cc1coc2c1C(=O)C(=O)c1c-2ccc2c1CCCC2(C)C | inactive: 1.01
N#CC(O[C@@H]1O[C@H](CO[C@@H]2O[C@H](CO)[C@@H](O)[C@H](O)[C@H]2O)[C@@H](O)[C@H](O)[C@H]1O)c1ccccc1 (stereo partly drawn) | inactive: 1.93

Look-ups from the entries so far:
CN1CCN2c3ccccc3Cc3ccccc3C2C1.Cl (stereo not drawn) – cell-cell fusion (z-score): inactive: 3.64
CC(=O)OCC(=O)[C@@]1(O)CC[C@H]2[C@@H]3CCC4=CC(=O)CC[C@]4(C)[C@H]3C(=O)C[C@@]21C [Cortisone acetate] – cell-cell fusion (z-score): inactive: 1.2
CC(=O)OCC(=O)[C@@]1(O)CC[C@H]2[C@@H]3CCC4=CC(=O)CC[C@]4(C)[C@H]3C(=O)C[C@@]21C [Cortisone 21-acetate] – cell-cell fusion (z-score): inactive: 2.19
O=C(/C=C/c1ccccc1)c1ccc(O)cc1 – cell-cell fusion (z-score): inactive: 0.849

(listing goes on)

Compound | cell-cell fusion (z-score)
CN1C2CCC1CC(OC(c1ccccc1)c1ccccc1N)C2 (stereo not drawn) [Aminobenztropine] | inactive: 1.42
Cl.OCC1NCC(O)C(O)C1O (stereo not drawn) [1-Deoxynojirimycin hydrochloride] | inactive: 0.653
C[C@]12C=CC(=O)C=C1CCC1C2CC[C@]2(C)C(=O)CCC12 (stereo partly drawn) | inactive: 2.83
COc1cc(OC)c2c(=O)c(O)c(-c3ccc(OC)c(OC)c3)oc2c1 | inactive: 1.96
Nc1nc(F)nc2c1ncn2[C@H]1O[C@H](CO)[C@@H](O)[C@@H]1O [Fludarabine (Fludara)] | inactive: 1.73
COc1cc(C(=O)NCCCCCC(=O)O)cc(OC)c1OC | inactive: 1.7
O=C1[C@H](CC[C@H](O)c2ccc(F)cc2)[C@H](c2ccc(O)cc2)N1c1ccc(F)cc1 [Ezetimibe (Zetia)] | inactive: -2.6
Nc1ncnc2c1ncn2[C@@H]1O[C@H](CO)[C@@H](O)[C@H]1O | inactive: 0.0405
CC1(C)C(=O)C=C[C@@]2(C)C1C[C@@H](O)[C@]1(C)C2CC[C@@]2(C)[C@H](c3ccoc3)OC(=O)[C@H]3O[C@]321 (stereo partly drawn) | inactive: 1.77
Cl.N[C@@H](Cc1ccccc1)C(=O)O | inactive: 1.84
Cc1ccc([N+](=O)[O-])cc1S(=O)(=O)N(C)C | inactive: 1.2
c1ccc2[nH]c(-c3cscn3)nc2c1 | inactive: 2.54
Cl.Nc1c2c(nc3ccccc13)CCCC2 [9-Amino-1,2,3,4-tetrahydroacridine hydrochloride] | inactive: 2.48
C[C@@H](O)[C@H]1C(=O)N2C(C(=O)O)=C(S[C@@H]3CN[C@H](C(=O)N(C)C)C3)[C@H](C)[C@H]12 [Meropenem] | inactive: 2.33
C[C@H]1CC2C([C@@H](O)C[C@@]3(C)C2CC[C@]3(O)C(=O)CO)[C@@]2(C)C=CC(=O)C=C12 (stereo partly drawn) | inactive: -0.407
CC(C(O)c1ccc(O)cc1)N1CCC(Cc2ccccc2)CC1.CC(C(O)c1ccc(O)cc1)N1CCC(Cc2ccccc2)CC1.O=C(O)C(O)C(O)C(=O)O (stereo not drawn) [Ifenprodil tartrate] | inactive: 0.85
C[C@@H]1CC[C@H]2C(C)(C)C3CC12CC[C@@]3(C)O (stereo partly drawn) | inactive: 1.16
CN(C)Cc1ccc(-c2nc3cccc4c3n2CCNC4=O)cc1 | inactive: 2.4
C[C@H](CCC(=O)[O-])[C@H]1CC[C@H]2[C@@H]3CC[C@@H]4C[C@H](O)CC[C@]4(C)[C@H]3C[C@H](O)[C@]12C.[Na+] [Sodium Desoxycholate] | inactive: 0.631
CC(=O)S[C@@H]1CC2=CC(=O)CC[C@]2(C)[C@H]2CC[C@@]3(C)[C@@H](CC[C@@]34CCC(=O)O4)[C@H]12 [Abbolactone] | inactive: 3.15
C=CCCCCCCCCCCCC(O)CC(O)COC(C)=O (stereo not drawn) | inactive: 3.1
O=C(CCCN1C=CC(n2c(=O)[nH]c3ccccc32)CC1)c1ccc(F)cc1 (stereo not drawn) [Droperidol] | inactive: 3.09
Cl.O=C1CC2(CCCC2)CC(=O)N1CCCCN1CCN(c2ncccn2)CC1 [Buspirone hydrochloride] | inactive: 1.46
CCC(c1ccc(O)cc1)C(CC)c1ccc(O)cc1 (stereo not drawn) | inactive: -1.91
COc1cc2c(c(OC)c1OC)-c1ccc(O)c(=O)cc1[C@@H](NC(C)=O)CC2 | inactive: 2.13

Compound | cell-cell fusion (z-score)
CC(=O)N1CCCC1C(=O)O (stereo not drawn) | inactive: 1.47
Cc1cnc(NC(=O)Nc2cc(Br)c(C)cc2OC[C@@H]2CNCCO2)cn1 | inactive: -1.24
CC[N+](C)(C)c1cccc(O)c1.[Cl-] [Edrophonium chloride] | inactive: 2.48
Cc1cc2c(cc1Cl)N(C(=O)Nc1ccnc3ccccc13)CC2 | inactive: 1.41
CC(=O)N[C@H](C(=O)O)C(C)(C)SN=O [S-Nitroso-N-acetylpenicillamine] | inactive: 3
CCCCN(CCCC)CC(O)c1cc(Cl)cc2c1-c1ccc(Cl)cc1/C2=C/c1ccc(Cl)cc1 (stereo not drawn) [Lumefantrine] | inactive: 3.68
NC(=O)CI [Iodoacetamide] | inactive: 1.07
CNC(=C[N+](=O)[O-])NCCSCc1ccc(CN(C)C)o1 [Ranitidin] | inactive: 3.1
COC[C@H]1OC(=O)c2coc3c2[C@@]1(C)C1=C(C3=O)C2CCC(=O)[C@@]2(C)C[C@H]1OC(C)=O (stereo partly drawn) [Wortmannin from Penicillium funiculosum] | inactive: 0.268
CCCCC(CC)COC(=O)CC(C(=O)OCC(CC)CCCC)S(=O)(=O)[O-].[Na+] (stereo not drawn) | inactive: 3.99
OCCOc1ccc(/C(=C(/CCCl)c2ccccc2)c2ccccc2)cc1 [Ospemifene] | inactive: 2.42
CCN(CC)C(=O)c1cccc(C)c1 | inactive: 0.142
CCc1cc(Cl)c(OC)c(C(=O)NC[C@@H]2CCN(CC)C2)c1O.Cl [S-(-)-Eticlopride hydrochloride] | inactive: 2.61
C[N+](C)(C)C[C@H](O)CC(=O)[O-] [L(-)-Carnitine] | inactive: 3.95
O=C(Nc1nc2ccccc2n1CCN1CCOCC1)c1cccc([N+](=O)[O-])c1 [IRAK-1/4 Inhibitor I] | inactive: 0.493
Cc1ccc(C(=O)c2cc(O)c(O)c([N+](=O)[O-])c2)cc1 [Tolcapone] | inactive: 1.65
CCCCCOC(=O)Nc1nc(=O)n([C@@H]2O[C@H](C)[C@@H](O)[C@H]2O)cc1F [Capecitabine] | inactive: 3.32
Br.CCSC(=N)N [S-Ethylisothiourea hydrobromide] | inactive: 2.53
Cn1nnc2c(C(N)=O)ncn2c1=O [Temozolomide] | inactive: 0.476
C#C[C@]1(OC(C)=O)CCC2C3CCC4=C/C(=N/O)CCC4C3CC[C@@]21CC (stereo partly drawn) | inactive: 0.09
CC1(C)CCC(CN2CCN(c3ccc(C(=O)NS(=O)(=O)c4ccc(NCC5CCOCC5)c([N+](=O)[O-])c4)c(Oc4cnc5[nH]ccc5c4)c3)CC2)=C(c2ccc(Cl)cc2)C1 | inactive: 4.83
COc1cc2c(cc1OC)C(=O)C(CC1CCN(Cc3ccccc3)CC1)C2.Cl (stereo not drawn) [Donepezil HCl] | inactive: 1.62
CN(CC[C@@H](Oc1ccc(C(F)(F)F)cc1)c1ccccc1)CC(=O)[O-].[Li+] | inactive: 1.91

For reference, some entries already given.
Compound | cell-cell fusion (z-score)
OCCOc1ccc(/C(=C(/CCCl)c2ccccc2)c2ccccc2)cc1 [Ospemifene] | inactive: 2.42
CCN(CC)C(=O)c1cccc(C)c1 | inactive: 0.142
